# Source: PubChem BioAssay AID1439 (NMMLSC, 2008)
# Amino acid sequences for entries named in this document (tags omitted).
# UniProt P09471, whole entry, looked up: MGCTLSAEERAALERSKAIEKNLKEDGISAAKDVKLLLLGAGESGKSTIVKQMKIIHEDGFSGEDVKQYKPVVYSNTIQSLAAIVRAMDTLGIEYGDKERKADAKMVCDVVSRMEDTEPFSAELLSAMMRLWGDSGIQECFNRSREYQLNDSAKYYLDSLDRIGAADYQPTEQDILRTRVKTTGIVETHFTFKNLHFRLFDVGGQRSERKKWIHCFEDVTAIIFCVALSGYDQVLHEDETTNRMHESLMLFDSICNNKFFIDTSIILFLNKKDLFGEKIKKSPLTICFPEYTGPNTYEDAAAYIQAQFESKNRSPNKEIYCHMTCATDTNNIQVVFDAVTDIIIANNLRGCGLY
# The campaign covered roughly 220,000 compounds. About 770 (0.35%) were called active. The shares of active, inactive and inconclusive entries below differ from those in the screen. No stated cut-off is given here; in the data, active means binding response below about 49% or above about 150%; inconclusive means no clear call, values can overlap the other calls; inactive means in between.
# Target: Guanine nucleotide-binding protein G(o) subunit alpha (Homo sapiens) (UniProt P09471)
# Test: RGS7-Galphao binding modulators, primary screen, biochemical, multiplexed bead flow cytometry (AID 1439);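 further: fluorescent Galphao held in activated GDP-AlF4 state binding bead-coupled RGS7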
# Conditions: at 10 µM, actives lie on both sides
row,Structure (SMILES),binding response (% of control)
1,O=C(/C=C/c1ccccc1)N(Cc1cccc(Cl)c1)C1CCS(=O)(=O)C1 (stereo not drawn),inconclusive: 104%
2,COc1ccc(CNc2ncnc3c2[nH]c2cc(OC)c(OC)cc23)cc1,inconclusive: 64.7%
3,Cc1nc2ccc(NC(=O)Cc3ccc(Br)cc3)cc2s1,inconclusive: 79.5%
4,N#C/C(=C(/O)CSc1nnc(Cc2cccs2)n1C1CCCCC1)c1nc2ccccc2[nH]1,active: 45.9%
5,Cc1ccc(S(=O)(=O)Nc2c(C)n(C)n(-c3ccccc3)c2=O)cc1C(=O)OCC(=O)N1CCCC(C)C1 (stereo not drawn),inconclusive: 106%
6,N#Cc1c(-c2ccco2)cc(-c2ccccc2)[nH]c1=O,inconclusive: 114%
7,C/C(=C\C=C\c1ccccc1)C(=O)c1c(C)cc(C)[nH]c1=O,inactive: 85.7%
8,O=C(Nc1cscc1S(=O)(=O)c1ccccc1)c1ccccc1Cl,inconclusive: 95.3%
9,C/C(=N\NC(=O)C(N)=O)c1ccc(O)cc1O,inconclusive: 60.9%
10,Cc1cc(C(=O)Nc2ccc(N3CCCCC3)cc2)no1,inconclusive: 341%
11,COc1ccc(N2C(=O)C(CN3CCN(C)CC3)C2c2ccccc2)cc1 (stereo not drawn),inactive: 105%
12,Cc1cnc2cc(Cl)ccc2c1SCC(=O)O,inconclusive: 159%
13,COc1ccc(C2=CC3=C(Br)C(=O)C(C)(OC(=O)c4ccc(Cl)nc4)C(=O)C3=CO2)cc1 (stereo not drawn),inconclusive: 92.7%
14,CSc1nc(=S)c2[nH]c(=S)[nH]c2[nH]1,inconclusive: 186%
15,CN1c2ccccc2C(=O)/C(=C\Nc2ccc(F)cc2)S1(=O)=O,inconclusive: -687%
16,CCCOc1ccc(-c2c(C(=O)N/N=C/c3ccccc3)nnn2-c2nonc2N)cc1,inconclusive: 111%
17,NC(=O)c1cccnc1Oc1ccc(Cl)cc1Cl,inconclusive: 49.2%
18,COc1cc(CN2CCNC(=O)C2CC(=O)N(Cc2nccn2C)C(C)C)cc(OC)c1 (stereo not drawn),inconclusive: 116%
19,COc1ccc(C(=O)CSc2nnc(CNC(=O)c3ccco3)n2C)cc1,inconclusive: 127%
20,CC(O)CNCCNCc1cccs1 (stereo not drawn),inconclusive: 78.1%

# Part of the list above in order of length of the SMILES, high to low:
row,Structure (SMILES),binding response (% of control)
13,COc1ccc(C2=CC3=C(Br)C(=O)C(C)(OC(=O)c4ccc(Cl)nc4)C(=O)C3=CO2)cc1 (stereo not drawn),inconclusive: 92.7%
16,CCCOc1ccc(-c2c(C(=O)N/N=C/c3ccccc3)nnn2-c2nonc2N)cc1,inconclusive: 111%
6,N#Cc1c(-c2ccco2)cc(-c2ccccc2)[nH]c1=O,inconclusive: 114%
17,NC(=O)c1cccnc1Oc1ccc(Cl)cc1Cl,inconclusive: 49.2%

# The listing continues:

row,Structure (SMILES),binding response (% of control)
1,CN1CCN(c2ccc(CNS(=O)(=O)Cc3cccc(C(F)(F)F)c3)cc2)CC1,inconclusive: 38.3%
2,Cn1c(=O)c([N+](=O)[O-])c(NCCCn2ccnc2)c2ccccc21,inconclusive: 118%
3,Cc1cc(OCC(=O)N(C)c2ccccc2)cc2c1C(=O)CC(C)(C)O2,inconclusive: 75.3%
4,COc1cc(/C=C(\C#N)C(=O)NC(C)C)ccc1OCc1ccc(C(=O)O)cc1,inconclusive: 126%
5,CC(C)C1Oc2cc3oc(=O)ccc3cc2C1=O (stereo not drawn),inactive: 50.4%
6,CCOC(=O)C(=CNc1ccc2c(c1)CCN2C(C)=O)C(=O)OCC,inconclusive: 116%
7,CN1CCN(NC(=O)c2ccc(Cl)s2)CC1,inconclusive: 89.6%
8,CCc1ccc(OCc2nnc(SCCN3CCOCC3)n2C)cc1,inactive: 104%
9,CCOC(=O)C1=C(C)N(c2ccc(OC)cc2)C(=O)/C1=C\c1ccc(O)c(OCC)c1,inconclusive: 136%
10,CN1C(N)=NC(=O)/C1=C/c1ccc(F)cc1,inconclusive: 140%
11,CCN(Cc1cc2cc(C)ccc2[nH]c1=O)C(=O)c1cccc([N+](=O)[O-])c1,inconclusive: -370%
12,O=S(=O)(c1ccc(OCC(O)CNC23CC4CC(CC(C4)C2)C3)c(Cl)c1)N1CCOCC1 (stereo not drawn),inconclusive: 93.6%
13,O=C(Cc1cn(Cc2cccc(Cl)c2)c2ccccc12)N1CCCCCC1,inactive: 99.4%
14,Cc1onc(-c2ccccc2)c1-c1csc(N/N=C/c2ccccc2)n1,inconclusive: 80.3%
15,COc1ccc(C(=O)NCCN2CCOCC2)c(OC)c1,inconclusive: 95.5%
16,CCCCn1c(=N)n(CC(=O)c2ccc(Br)s2)c2ccccc21,inconclusive: 195%
17,O=C(O)CC1(CC(=O)Nc2ccc3ccccc3n2)CCCCC1,inconclusive: 188%
18,COc1ccc(/C=C/C(=O)c2ccc3c4c(cccc24)CC3)cc1OC,inactive: 99.6%
19,O=c1cc(O)nc(SCc2ccccc2)n1-c1ccc(Cl)cc1,inconclusive: 61.6%
20,O=C(O)CCn1c(SCc2cc(=O)n3ccccc3n2)nc2ccsc2c1=O,inactive: 101%

row,Structure (SMILES),binding response (% of control)
1,COc1ccc(OCCC(=O)NCC23CC4CC(CC(C4)C2)C3)cc1,inconclusive: 84.3%
2,Cc1nc2ccc(NC(=O)Cc3c(F)cccc3Cl)cc2s1,inconclusive: 103%
3,CS(=O)(=O)N(CC(=O)NC1CCCC1)C1CCCCC1,inactive: 105%
4,CC(C)Cn1c(SCC(=O)Nc2cccc(S(N)(=O)=O)c2)nc2ccccc2c1=O,inconclusive: 119%
5,C=C(C)COc1ccc(-c2[nH]ncc2Oc2ccc(OC)cc2)c(O)c1,inconclusive: 107%
6,O=C(Cc1ncon1)Nc1ccc(F)c(F)c1F,inconclusive: 16.7%
7,CCCCCCNC(=O)N[C@H](C(=O)NCCC[C@H]1CN2C(=NC[C@H]2C)N1CCC(c1ccccc1)c1ccccc1)C(C)O (stereo partly drawn),inconclusive: 66.1%
8,COCC(=O)Nc1ccc2nc3n(c(=O)c2c1)CCCCC3,inconclusive: 118%
9,CCCC(=O)Nn1cnc2c(c1=O)C1(CCCCC1)Cc1ccccc1-2,inactive: 103%
10,COc1cccc(C2C3=C(CC(C)(C)CC3=O)Nc3n[nH]c(C)c32)c1 (stereo not drawn),inconclusive: 94.3%
11,O=C(CCl)Nc1cn(-c2ccccc2)nc1-c1ccc(F)cc1,inconclusive: 93.5%
12,COc1ccc(N2CCN(S(=O)(=O)c3cnc[nH]3)CC2)cc1,inconclusive: 78.9%
13,Cc1nnc2sc(SCC(=O)Nc3cccc(Cl)c3)nn2c1=O,inactive: 98%
14,Cc1ccc(NCc2nnc(SCC(=O)O)n2Cc2ccccc2)cc1Cl,inactive: 104%
15,O=C(CCS(=O)(=O)c1ccccc1)Nc1nc(-c2ccc(F)cc2)cs1,inconclusive: 90.5%
16,CCOC(=O)c1ccc2c(c1)nc(SCC(=O)c1ccco1)n2CC,inactive: 95.5%
17,CCOC(=O)c1c(NC(=O)CCNCc2ccco2)sc2c1CCC2,inconclusive: 124%
18,Cc1nc(-c2noc(-c3cccc(Cl)c3)n2)c(C(F)(F)F)o1,inconclusive: 53.9%
